# Experimental data published in patent publication US20110086834A1, “ALKYNYL ALCOHOLS AS KINASE INHIBITORS” (AMGEN INC., priority 2008, published 2011).
# The chains behind the UniProt entries cited, without tags or fusion partners. Residues count along the entry.
# UniProt Q99558, 400-655 limits assumed: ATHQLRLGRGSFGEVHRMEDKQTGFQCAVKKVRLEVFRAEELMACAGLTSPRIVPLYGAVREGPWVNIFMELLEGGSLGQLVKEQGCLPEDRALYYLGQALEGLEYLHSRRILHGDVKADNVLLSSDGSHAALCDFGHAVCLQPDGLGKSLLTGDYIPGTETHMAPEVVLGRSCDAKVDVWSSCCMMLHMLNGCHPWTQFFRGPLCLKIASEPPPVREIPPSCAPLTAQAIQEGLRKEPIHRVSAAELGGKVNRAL
# Some entries share one result that the patent states for a list of compounds.
# Molecular target: T1, NIK (Homo sapiens, UniProt Q99558)
# T1 construct: Both assays utilize a truncated form of NIK containing only the catalytic domain; made in house; host or cells: baculovirus expression system (insect cells implied)
# Experiment: homogenous time resolved fluorescence (HTRF) assay for NIK Ki measurement
# Format: biochemical
# Settings: truncated NIK (catalytic domain only), autophosphorylation; 10 nM enzyme; 20, 100, 200 or 500 μM ATP; room temperature, 2 hours
# Description: Two formats of biochemical assays are implemented: (1) chemiluminescent (CL) assay for NIK IC50 determination; (2) homogenous time resolved fluorescence (HTRF) assay for NIK Ki measurement. […] The NIK proteins are purified with baculovirus expression system and further biotinylated with N-hydroxysuccinamide biotin ester (Sigma). […] The reaction mixtures are then immobilized on a Streptavidin-coated plate (Pierce). […] For the HTRF assay, 10 nM of enzyme are incubated with compounds in the presence of 20, 100, 200, or 500 μM of ATP in a buffer with 20 mM of Hepes pH7.5, 20 mM of MgCl2, 0.2% of Tween 20 and 1 mM of DTT at room temperature for 2 hours.
substance,measurement,value
4-(1-(2-amino-5-chloropyrimidin-4-yDindolin-6-yl)-2-(5-methyloxazol-4-yl)but-3-yn-2-ol [Example 7],Ki,< 1 µM
